Results from PubChem BioAssay AID328 (DTP/NCI, 2004).
The list is a part of this screen's results and no random one: it is rich in T/C values a quarter to a half above the control, in often repeated tests (any T/C) and in doses without a T/C. Other doses and runs of a compound stand elsewhere. T/C gives the treated animals as a percentage of the vehicle group. Some doses have a count of surviving animals in place of a T/C: the source holds a T/C of zero for them, seemingly a mark for toxic or unscored doses. Some survivor counts are full or nearly so, which does not show that the dose was tolerated: the source hardly ever lists a survival T/C far under the control, and the zero likely stands for such cases as well. Counts of survivors are from the toxicity check (mostly the fifth day) where no day follows; animals may have died later. Schedule codes are those of the source, taken here to give the interval after Q, in days (D) or hours (H), and the number of doses after X. Where survival is the endpoint, the PubChem record calls one and a half times the control and up active, and a quarter to a half above the control has no call in these data; cut-offs in other NCI protocols can differ. Counts like (3×) stand for listed records that agree. Some T/C values are followed by the survivors on the day toxicity was checked, most often the fifth; without a count, all were alive then. Some entries hold several experiments; their values stand side by side, smallest first.

Test system: BDF1 mice, P388 leukemia ip, median survival T/C
Assay: NCI In Vivo Anticancer Drug Screen. Data for tumor model P388 Leukemia (intraperitoneal) in B6D2F1 (BDF1) mice
Conditions: T/C endpoint: median survival time, higher T/C = longer survival
Method in brief: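 Steps: implant the tumour, treat one group with compound and another with vehicle, record survival, then divide treated by control.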

[1] = dose: 25.0 mg/kg/injection, schedule: Q01DX009 (ip), vehicle: Klucel (hydroxypropylcellulose) (HPC)
[2] = dose: 25.0 mg/kg/injection, schedule: Q01DX009 (ip), vehicle: saline with Tween-80
[3] = dose: 100.0 mg/kg/injection, schedule: Q01DX009 (ip), vehicle: saline with Tween-80

CC[n+]1ccc(Nc2ccc(NC(=O)c3ccc(Nc4cc[n+](CC)c5ccc([N+](=O)[O-])cc45)cc3)cc2)cc1
T/C (dose: 2.6 mg/kg/injection, schedule: Q04DX003 (ip), vehicle: saline): 140 % of control
T/C (dose: 9.0 mg/kg/injection, schedule: Q04DX003 (ip), vehicle: saline): 145 % of control

NOc1ccc([N+](=O)[O-])cc1[N+](=O)[O-]
survivor count (dose: 16.5 mg/kg/injection, schedule: Q01DX009 (ip), vehicle: Klucel (hydroxypropylcellulose) (HPC)): 6 of 6
T/C [1]: 125 % of control
survivor count (dose: 55.0 mg/kg/injection, schedule: Q01DX009 (ip), vehicle: Klucel (hydroxypropylcellulose) (HPC)): 0 of 6

COc1ccc(/C=C/C(=O)c2ccc3c(c2)OCO3)cc1OC
T/C (dose: 88.0 mg/kg/injection, schedule: Q01DX009 (ip), vehicle: saline with Tween-80): 127 % of control
T/C (dose: 132.0 mg/kg/injection, schedule: Q01DX009 (ip), vehicle: saline with Tween-80): 127 % of control
T/C (dose: 133.0 mg/kg/injection, schedule: Q01DX009 (ip), vehicle: saline with Tween-80): 127 % of control
T/C (dose: 150.0 mg/kg/injection, schedule: Q01DX009 (ip), vehicle: saline with Tween-80): 127 % of control
T/C (dose: 200.0 mg/kg/injection, schedule: Q01DX009 (ip), vehicle: saline with Tween-80): 136 % of control (2×)
T/C (dose: 300.0 mg/kg/injection, schedule: Q01DX009 (ip), vehicle: saline with Tween-80): 141 and 145 % of control

CN(C)CCNc1ccc([N+](=O)[O-])c2sc3ccccc3c(=O)c12
T/C (dose: 12.5 mg/kg/injection, schedule: Q01DX009 (ip), vehicle: Klucel (hydroxypropylcellulose) (HPC)): 125 % of control
T/C (dose: 17.0 mg/kg/injection, schedule: Q01DX009 (ip), vehicle: Klucel (hydroxypropylcellulose) (HPC)): 134 and 138 % of control
T/C [1]: 137 % of control
survivor count (dose: 100.0 mg/kg/injection, schedule: Q04DX003 (ip), vehicle: Klucel (hydroxypropylcellulose) (HPC)): 1 of 6
survivor count (dose: 200.0 mg/kg/injection, schedule: Q04DX003 (ip), vehicle: Klucel (hydroxypropylcellulose) (HPC)): 1 of 6
survivor count (dose: 400.0 mg/kg/injection, schedule: Q04DX003 (ip), vehicle: Klucel (hydroxypropylcellulose) (HPC)): 3 of 6

Cn1cnc([N+](=O)[O-])c1[Se]c1ncnc2c1ncn2C1OC(CO)C(O)C1O (centres undefined)
survivor count (dose: 50.0 mg/kg/injection, schedule: Q01DX009 (ip), vehicle: saline): 6 of 6
survivor count (dose: 100.0 mg/kg/injection, schedule: Q04DX003 (ip), vehicle: saline): 5 of 6
survivor count (dose: 400.0 mg/kg/injection, schedule: Q04DX003 (ip), vehicle: saline): 0 of 6

Nc1cc(Nc2cccc(Cl)c2)nc(N)n1
survivor count [2]: 3 of 6
survivor count [3]: 3 of 6

C=C1C(=O)O[C@@H]2/C=C(/C)[C@@]3(O)C=C[C@](C)(C[C@@H](OC(=O)/C(=C\C)COC(C)=O)[C@@H]12)O3
survivor count (dose: 2.0 mg/kg/injection, schedule: Q01DX009 (ip), vehicle: carboxymethylcellulose (CMC)): 6 of 6
survivor count (dose: 4.0 mg/kg/injection, schedule: Q01DX009 (ip), vehicle: carboxymethylcellulose (CMC)): 3 of 6
T/C (dose: 10.0 mg/kg/injection, schedule: Q01DX010 (ip), vehicle: saline): 140 % of control
survivor count (dose: 12.0 mg/kg/injection, schedule: Q01DX010 (ip), vehicle: carboxymethylcellulose (CMC)): 3 of 6
T/C (dose: 18.0 mg/kg/injection, schedule: Q01DX010 (ip), vehicle: carboxymethylcellulose (CMC)): 126 % of control [4 of 6 alive]
T/C (dose: 20.0 mg/kg/injection, schedule: Q01DX010 (ip), vehicle: saline): 145 % of control
T/C (dose: 27.0 mg/kg/injection, schedule: Q01DX010 (ip), vehicle: saline): 127 % of control
survivor count (dose: 60.0 mg/kg/injection, schedule: Q01DX010 (ip), vehicle: saline): 5 of 6

Clc1ccc(N=C(SSC(Cl)(Cl)Cl)SSC(Cl)(Cl)Cl)cc1
survivor count [3]: 6 of 6

Cc1cc(C)c(NC(=O)N(CCCl)N=O)cc1C
T/C (dose: 100.0 mg/kg/injection, schedule: Q01DX009 (ip), vehicle: other): 127 and 145 % of control [5 of 6 alive]
survivor count (dose: 150.0 mg/kg/injection, schedule: Q01DX009 (ip), vehicle: other): 2 of 6

O=C(Nc1nc(Cl)nc(Cl)n1)N1CCOCC1
T/C (dose: 12.5 mg/kg/injection, schedule: Q01DX009 (ip), vehicle: saline with Tween-80): 131 % of control
survivor count [2]: 6 of 6
survivor count (dose: 50.0 mg/kg/injection, schedule: Q04DX003 (ip), vehicle: saline with Tween-80): 1 of 6

c1ccc(-n2nc3c(c2OCCN2CCCC2)CCCc2ccccc2-3)cc1
survivor count (dose: 150.0 mg/kg/injection, schedule: Q04DX003 (ip), vehicle: saline with Tween-80): 3 of 6
survivor count (dose: 200.0 mg/kg/injection, schedule: Q04DX003 (ip), vehicle: saline with Tween-80): 0 of 6
survivor count (dose: 400.0 mg/kg/injection, schedule: Q04DX003 (ip), vehicle: saline with Tween-80): 0 of 6
